Laboratory results taken from article PMC5766551.
Results are given in words; binding and its absence hold for the method and conditions named. In cells and extracts the contact can be indirect. Some results given as binding are weak or reduced against the parent protein; the word gives no strength. Tags and fused reporters may be left off the sequences shown.

T1: YidC with N-terminal His-tag, wild type (E. coli) (UniProt P25714)
T1 sequence: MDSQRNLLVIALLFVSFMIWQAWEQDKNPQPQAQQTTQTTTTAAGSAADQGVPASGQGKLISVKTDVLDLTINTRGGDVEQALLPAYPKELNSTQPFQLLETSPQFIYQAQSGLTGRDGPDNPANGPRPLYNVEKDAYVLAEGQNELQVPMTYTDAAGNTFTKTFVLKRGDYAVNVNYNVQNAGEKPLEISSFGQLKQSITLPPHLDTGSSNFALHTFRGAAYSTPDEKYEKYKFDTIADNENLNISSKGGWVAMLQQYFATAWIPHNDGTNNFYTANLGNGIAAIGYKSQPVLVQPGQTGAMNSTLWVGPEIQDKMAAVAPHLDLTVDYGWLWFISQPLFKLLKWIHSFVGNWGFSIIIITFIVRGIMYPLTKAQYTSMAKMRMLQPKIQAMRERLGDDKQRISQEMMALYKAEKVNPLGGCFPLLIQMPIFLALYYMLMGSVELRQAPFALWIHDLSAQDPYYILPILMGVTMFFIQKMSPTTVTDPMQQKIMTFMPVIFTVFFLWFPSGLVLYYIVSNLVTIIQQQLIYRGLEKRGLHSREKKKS

T2: YidC(Δ3 + Δ4) with N-terminal His-tag (E. coli) (UniProt P25714)
T2 sequence: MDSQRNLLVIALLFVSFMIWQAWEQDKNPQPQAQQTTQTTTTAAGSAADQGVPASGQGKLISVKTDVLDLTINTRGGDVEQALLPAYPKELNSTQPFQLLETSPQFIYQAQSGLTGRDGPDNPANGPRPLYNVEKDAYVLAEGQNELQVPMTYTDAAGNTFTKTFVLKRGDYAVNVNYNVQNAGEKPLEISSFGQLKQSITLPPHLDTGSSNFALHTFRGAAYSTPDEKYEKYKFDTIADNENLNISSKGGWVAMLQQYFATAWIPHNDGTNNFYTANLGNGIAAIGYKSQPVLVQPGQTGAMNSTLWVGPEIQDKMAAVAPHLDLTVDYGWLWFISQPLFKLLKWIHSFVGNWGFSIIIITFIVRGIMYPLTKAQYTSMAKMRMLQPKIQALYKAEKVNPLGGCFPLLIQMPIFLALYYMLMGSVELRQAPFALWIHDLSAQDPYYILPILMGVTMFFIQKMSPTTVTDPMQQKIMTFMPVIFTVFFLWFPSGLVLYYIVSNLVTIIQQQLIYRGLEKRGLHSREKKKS

T3: YidC with N-terminal His-tag, wild type (E. coli), P25714
T3 chain: T1 sequence

B1: Ffh, the protein component of the bacterial SRP, endogenous (protein, UniProt P0AGD7 1-453)
chain: MFDNLTDRLSRTLRNISGRGRLTEDNVKDTLREVRMALLEADVALPVVREFINRVKEKAVGHEVNKSLTPGQEFVKIVRNELVAAMGEENQTLNLAAQPPAVVLMAGLQGAGKTTSVGKLGKFLREKHKKKVLVVSADVYRPAAIKQLETLAEQVGVDFFPSDVGQKPVDIVNAALKEAKLKFYDVLLVDTAGRLHVDEAMMDEIKQVHASINPVETLFVVDAMTGQDAANTAKAFNEALPLTGVVLTKVDGDARGGAALSIRHITGKPIKFLGVGEKTEALEPFHPDRIASRILGMGDVLSLIEDIESKVDRAQAEKLASKLKKGDGFDLNDFLEQLRQMKNMGGMASLMGKLPGMGQIPDNVKSQMDDKVLVRMEAIINSMTMKERAKPEIIKGSRKRRIAAGCGMQVQDVNRLLKQFDDMQRMMKKMKKGGMAKMMRSMKGMMPPGFPGR
B2: FtsY, the SRP receptor, endogenous, P10121 1-497 (protein)
chain: MAKEKKRGFFSWLGFGQKEQTPEKETEVQNEQPVVEEIVQAQEPVKASEQAVEEQPQAHTEAEAETFAADVVEVTEQVAESEKAQPEAEVVAQPEPVVEETPEPVAIEREELPLPEDVNAEAVSPEEWQAEAETVEIVEAAEEEAAKEEITDEELETALAAEAAEEAVMVVPPAEEEQPVEEIAQEQEKPTKEGFFARLKRSLLKTKENLGSGFISLFRGKKIDDDLFEELEEQLLIADVGVETTRKIITNLTEGASRKQLRDAEALYGLLKEEMGEILAKVDEPLNVEGKAPFVILMVGVNGVGKTTTIGKLARQFEQQGKSVMLAAGDTFRAAAVEQLQVWGQRNNIPVIAQHTGADSASVIFDAIQAAKARNIDVLIADTAGRLQNKSHLMEELKKIVRVMKKLDVEAPHEVMLTIDASTGQNAVSQAKLFHEAVGLTGITLTKLDGTAKGGVIFSVADQFGIPIRYIGVGERIEDLRPFKADDFIEALFARED
B3: FtsY, the SRP receptor, endogenous (protein, UniProt P10121 1-497)
chain: B2 chain

Assays:
Test in all cases: cross-linking; in vivo para-formaldehyde cross-linking (30 min, 37 °C) of BL21 cells expressing YidCHis alone (pBad24); YidC purified via its His-tag; western blot
[1] = target: T1, YidC with N-terminal His-tag, wild type (E. coli)
[2] = target: T2, YidC(Δ3 + Δ4) with N-terminal His-tag (E. coli)
[3] = target: T3, YidC with N-terminal His-tag, wild type …; details: remark: other sources report otherwise

| Binder | binding [1] | binding [2] | binding [3] |
| --- | --- | --- | --- |
| B1 | binds | binds | – |
| B2 | – | – | binds |
| B3 | – | binds | – |
